Holding throughout (conditions): yeast three-hybrid, YBZ-1, SC-Leu-His + 0.5 mM 3-AT, 4 days
For test [1], the target named is T1, PUM1 PUF domain R4-ALG N971A + H972L + Q975G (Homo sapiens) (UniProt Q14671).
T1 sequence: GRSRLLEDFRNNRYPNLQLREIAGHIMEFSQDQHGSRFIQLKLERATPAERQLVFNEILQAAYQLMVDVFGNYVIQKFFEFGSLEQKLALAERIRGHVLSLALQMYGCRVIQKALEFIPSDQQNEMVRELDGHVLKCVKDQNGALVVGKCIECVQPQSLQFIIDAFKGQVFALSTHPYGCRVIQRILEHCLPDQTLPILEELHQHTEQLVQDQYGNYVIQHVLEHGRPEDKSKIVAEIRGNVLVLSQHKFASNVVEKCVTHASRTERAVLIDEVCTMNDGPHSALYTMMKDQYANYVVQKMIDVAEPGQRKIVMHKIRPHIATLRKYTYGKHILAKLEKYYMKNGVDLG

In test [2] the target is T2, PUM1 PUF domain R4-AQS N971A + H972Q + Q975S (Homo sapiens) (UniProt Q14671).
T2 sequence: T1 sequence with L145Q, G148S

For test [3], the target named is T3, PUM1 PUF domain R4-CRG N971C + H972R + Q975G (Homo sapiens) (UniProt Q14671).
T3 sequence: T1 sequence with A144C, L145R

The target in test [4] is T4, PUM1 PUF domain R4-CRL N971C + H972R + Q975L (Homo sapiens) (UniProt Q14671).
T4 sequence: T1 sequence with A144C, L145R, G148L

Test [5] addresses T5, PUM1 PUF domain R4-DHG N971D + Q975G (Homo sapiens) (UniProt Q14671).
T5 sequence: T1 sequence with A144D, L145H

Test [6] addresses T6, PUM1 PUF domain R4-DRG N971D + H972R + Q975G (Homo sapiens) (UniProt Q14671).
T6 sequence: T1 sequence with A144D, L145R

For test [7], the target named is T7, PUM1 PUF domain R4-DRI N971D + H972R + Q975I (Homo sapiens) (UniProt Q14671).
T7 sequence: T1 sequence with A144D, L145R, G148I

Test [8] addresses T8, PUM1 PUF domain R4-EPG N971E + H972P + Q975G (Homo sapiens) (UniProt Q14671).
T8 sequence: T1 sequence with A144E, L145P

In test [9] the target is T9, PUM1 PUF domain R4-EPS N971E + H972P + Q975S (Homo sapiens) (UniProt Q14671).
T9 sequence: T1 sequence with A144E, L145P, G148S

In test [10] the target is T10, PUM1 PUF domain R4-FNI N971F + H972N + Q975I (Homo sapiens) (UniProt Q14671).
T10 sequence: T1 sequence with A144F, L145N, G148I

Test [11] has as its target T11, PUM1 PUF domain R4-GPM N971G + H972P + Q975M (Homo sapiens) (UniProt Q14671).
T11 sequence: T1 sequence with A144G, L145P, G148M

The target of test [12] is T12, PUM1 PUF domain R4-GPT N971G + H972P + Q975T (Homo sapiens) (UniProt Q14671).
T12 sequence: T1 sequence with A144G, L145P, G148T

Test [13] addresses T13, PUM1 PUF domain R4-IML N971I + H972M + Q975L (Homo sapiens) (UniProt Q14671).
T13 sequence: T1 sequence with A144I, L145M, G148L

Test [14] has as its target T14, PUM1 PUF domain R4-LRC N971L + H972R + Q975C (Homo sapiens) (UniProt Q14671).
T14 sequence: T1 sequence with A144L, L145R, G148C

The target in test [15] is T15, PUM1 PUF domain R4-RHL N971R + Q975L (Homo sapiens) (UniProt Q14671).
T15 sequence: T1 sequence with A144R, L145H, G148L

The target of test [16] is T16, PUM1 PUF domain R4-SPL N971S + H972P + Q975L (Homo sapiens) (UniProt Q14671).
T16 sequence: T1 sequence with A144S, L145P, G148L

In test [17] the target is T17, PUM1 PUF domain R4-TAQ N971T + H972A (Homo sapiens) (UniProt Q14671).
T17 sequence: T1 sequence with A144T, L145A, G148Q

Test [18] addresses T18, PUM1 PUF domain R4-VGI N971V + H972G + Q975I (Homo sapiens) (UniProt Q14671).
T18 sequence: T1 sequence with A144V, L145G, G148I

The target of test [19] is T19, PUM1 PUF domain R4-VRG N971V + H972R + Q975G (Homo sapiens) (UniProt Q14671).
T19 sequence: T1 sequence with A144V, L145R

Test [20] addresses T20, PUM1 PUF domain R4-VSI N971V + H972S + Q975I (Homo sapiens) (UniProt Q14671).
T20 sequence: T1 sequence with A144V, L145S, G148I

Data on 1 sequence can be found in article PMC8384837.

Numbering of substitutions follows the chain as printed. This is one part of the list.

Regarding “GGCUAGAACUAGUGGAUCCCCCGGCGCCCGGCGGCUCGAGCCCGGGUAAGUGUACAUAGUCUGCAUGCCGCCGGGCGCCAUGCCUGCAGGUCGACUCUAGAAAACAUG”, the binding signal (log2 enrichment (interaction score)) in [1] is -2.39; in test [2], -1.89; in [3] it was -1.25; in test [4] it was -1.31; in [5] it was -2.99; in test [6] it was -2.34. In addition, the binding signal (log2 enrichment (interaction score)) in test [7] was -2.66; in test [8], -2.67; in [9], -2.06; in [10], -1.42; in [11], -1.38; in [12], -1.36. The binding signal (log2 enrichment (interaction score)) in test [13] was -2.5; in [14], -2.85; in test [15], -1.5; in test [16], -2.25; in test [17] it was -2.63; in test [18], -1.46. The binding signal (log2 enrichment (interaction score)) in test [19] was -1.54; in test [20] it was -1.65.
